Experimental data from patent EP2045266A1, “Methods for treating and diagnosing a cancer secreting cath-D or Alzheimer's disease” (priority 2007, dated 2009).
Results are given in words; binding and its absence hold for the method and conditions named. For some of these results: Binding seen in cells or lysates may run through a third protein. Some entries that bind do so weakly or less than the wild type. One block for each substance: values may come before it.

The chains behind the UniProt entries cited, without tags or fusion partners. Where a name states a change or a piece, a line headed by the entry shows the natural chain unless it says otherwise. Residues count along the entry.
UniProt Q07954: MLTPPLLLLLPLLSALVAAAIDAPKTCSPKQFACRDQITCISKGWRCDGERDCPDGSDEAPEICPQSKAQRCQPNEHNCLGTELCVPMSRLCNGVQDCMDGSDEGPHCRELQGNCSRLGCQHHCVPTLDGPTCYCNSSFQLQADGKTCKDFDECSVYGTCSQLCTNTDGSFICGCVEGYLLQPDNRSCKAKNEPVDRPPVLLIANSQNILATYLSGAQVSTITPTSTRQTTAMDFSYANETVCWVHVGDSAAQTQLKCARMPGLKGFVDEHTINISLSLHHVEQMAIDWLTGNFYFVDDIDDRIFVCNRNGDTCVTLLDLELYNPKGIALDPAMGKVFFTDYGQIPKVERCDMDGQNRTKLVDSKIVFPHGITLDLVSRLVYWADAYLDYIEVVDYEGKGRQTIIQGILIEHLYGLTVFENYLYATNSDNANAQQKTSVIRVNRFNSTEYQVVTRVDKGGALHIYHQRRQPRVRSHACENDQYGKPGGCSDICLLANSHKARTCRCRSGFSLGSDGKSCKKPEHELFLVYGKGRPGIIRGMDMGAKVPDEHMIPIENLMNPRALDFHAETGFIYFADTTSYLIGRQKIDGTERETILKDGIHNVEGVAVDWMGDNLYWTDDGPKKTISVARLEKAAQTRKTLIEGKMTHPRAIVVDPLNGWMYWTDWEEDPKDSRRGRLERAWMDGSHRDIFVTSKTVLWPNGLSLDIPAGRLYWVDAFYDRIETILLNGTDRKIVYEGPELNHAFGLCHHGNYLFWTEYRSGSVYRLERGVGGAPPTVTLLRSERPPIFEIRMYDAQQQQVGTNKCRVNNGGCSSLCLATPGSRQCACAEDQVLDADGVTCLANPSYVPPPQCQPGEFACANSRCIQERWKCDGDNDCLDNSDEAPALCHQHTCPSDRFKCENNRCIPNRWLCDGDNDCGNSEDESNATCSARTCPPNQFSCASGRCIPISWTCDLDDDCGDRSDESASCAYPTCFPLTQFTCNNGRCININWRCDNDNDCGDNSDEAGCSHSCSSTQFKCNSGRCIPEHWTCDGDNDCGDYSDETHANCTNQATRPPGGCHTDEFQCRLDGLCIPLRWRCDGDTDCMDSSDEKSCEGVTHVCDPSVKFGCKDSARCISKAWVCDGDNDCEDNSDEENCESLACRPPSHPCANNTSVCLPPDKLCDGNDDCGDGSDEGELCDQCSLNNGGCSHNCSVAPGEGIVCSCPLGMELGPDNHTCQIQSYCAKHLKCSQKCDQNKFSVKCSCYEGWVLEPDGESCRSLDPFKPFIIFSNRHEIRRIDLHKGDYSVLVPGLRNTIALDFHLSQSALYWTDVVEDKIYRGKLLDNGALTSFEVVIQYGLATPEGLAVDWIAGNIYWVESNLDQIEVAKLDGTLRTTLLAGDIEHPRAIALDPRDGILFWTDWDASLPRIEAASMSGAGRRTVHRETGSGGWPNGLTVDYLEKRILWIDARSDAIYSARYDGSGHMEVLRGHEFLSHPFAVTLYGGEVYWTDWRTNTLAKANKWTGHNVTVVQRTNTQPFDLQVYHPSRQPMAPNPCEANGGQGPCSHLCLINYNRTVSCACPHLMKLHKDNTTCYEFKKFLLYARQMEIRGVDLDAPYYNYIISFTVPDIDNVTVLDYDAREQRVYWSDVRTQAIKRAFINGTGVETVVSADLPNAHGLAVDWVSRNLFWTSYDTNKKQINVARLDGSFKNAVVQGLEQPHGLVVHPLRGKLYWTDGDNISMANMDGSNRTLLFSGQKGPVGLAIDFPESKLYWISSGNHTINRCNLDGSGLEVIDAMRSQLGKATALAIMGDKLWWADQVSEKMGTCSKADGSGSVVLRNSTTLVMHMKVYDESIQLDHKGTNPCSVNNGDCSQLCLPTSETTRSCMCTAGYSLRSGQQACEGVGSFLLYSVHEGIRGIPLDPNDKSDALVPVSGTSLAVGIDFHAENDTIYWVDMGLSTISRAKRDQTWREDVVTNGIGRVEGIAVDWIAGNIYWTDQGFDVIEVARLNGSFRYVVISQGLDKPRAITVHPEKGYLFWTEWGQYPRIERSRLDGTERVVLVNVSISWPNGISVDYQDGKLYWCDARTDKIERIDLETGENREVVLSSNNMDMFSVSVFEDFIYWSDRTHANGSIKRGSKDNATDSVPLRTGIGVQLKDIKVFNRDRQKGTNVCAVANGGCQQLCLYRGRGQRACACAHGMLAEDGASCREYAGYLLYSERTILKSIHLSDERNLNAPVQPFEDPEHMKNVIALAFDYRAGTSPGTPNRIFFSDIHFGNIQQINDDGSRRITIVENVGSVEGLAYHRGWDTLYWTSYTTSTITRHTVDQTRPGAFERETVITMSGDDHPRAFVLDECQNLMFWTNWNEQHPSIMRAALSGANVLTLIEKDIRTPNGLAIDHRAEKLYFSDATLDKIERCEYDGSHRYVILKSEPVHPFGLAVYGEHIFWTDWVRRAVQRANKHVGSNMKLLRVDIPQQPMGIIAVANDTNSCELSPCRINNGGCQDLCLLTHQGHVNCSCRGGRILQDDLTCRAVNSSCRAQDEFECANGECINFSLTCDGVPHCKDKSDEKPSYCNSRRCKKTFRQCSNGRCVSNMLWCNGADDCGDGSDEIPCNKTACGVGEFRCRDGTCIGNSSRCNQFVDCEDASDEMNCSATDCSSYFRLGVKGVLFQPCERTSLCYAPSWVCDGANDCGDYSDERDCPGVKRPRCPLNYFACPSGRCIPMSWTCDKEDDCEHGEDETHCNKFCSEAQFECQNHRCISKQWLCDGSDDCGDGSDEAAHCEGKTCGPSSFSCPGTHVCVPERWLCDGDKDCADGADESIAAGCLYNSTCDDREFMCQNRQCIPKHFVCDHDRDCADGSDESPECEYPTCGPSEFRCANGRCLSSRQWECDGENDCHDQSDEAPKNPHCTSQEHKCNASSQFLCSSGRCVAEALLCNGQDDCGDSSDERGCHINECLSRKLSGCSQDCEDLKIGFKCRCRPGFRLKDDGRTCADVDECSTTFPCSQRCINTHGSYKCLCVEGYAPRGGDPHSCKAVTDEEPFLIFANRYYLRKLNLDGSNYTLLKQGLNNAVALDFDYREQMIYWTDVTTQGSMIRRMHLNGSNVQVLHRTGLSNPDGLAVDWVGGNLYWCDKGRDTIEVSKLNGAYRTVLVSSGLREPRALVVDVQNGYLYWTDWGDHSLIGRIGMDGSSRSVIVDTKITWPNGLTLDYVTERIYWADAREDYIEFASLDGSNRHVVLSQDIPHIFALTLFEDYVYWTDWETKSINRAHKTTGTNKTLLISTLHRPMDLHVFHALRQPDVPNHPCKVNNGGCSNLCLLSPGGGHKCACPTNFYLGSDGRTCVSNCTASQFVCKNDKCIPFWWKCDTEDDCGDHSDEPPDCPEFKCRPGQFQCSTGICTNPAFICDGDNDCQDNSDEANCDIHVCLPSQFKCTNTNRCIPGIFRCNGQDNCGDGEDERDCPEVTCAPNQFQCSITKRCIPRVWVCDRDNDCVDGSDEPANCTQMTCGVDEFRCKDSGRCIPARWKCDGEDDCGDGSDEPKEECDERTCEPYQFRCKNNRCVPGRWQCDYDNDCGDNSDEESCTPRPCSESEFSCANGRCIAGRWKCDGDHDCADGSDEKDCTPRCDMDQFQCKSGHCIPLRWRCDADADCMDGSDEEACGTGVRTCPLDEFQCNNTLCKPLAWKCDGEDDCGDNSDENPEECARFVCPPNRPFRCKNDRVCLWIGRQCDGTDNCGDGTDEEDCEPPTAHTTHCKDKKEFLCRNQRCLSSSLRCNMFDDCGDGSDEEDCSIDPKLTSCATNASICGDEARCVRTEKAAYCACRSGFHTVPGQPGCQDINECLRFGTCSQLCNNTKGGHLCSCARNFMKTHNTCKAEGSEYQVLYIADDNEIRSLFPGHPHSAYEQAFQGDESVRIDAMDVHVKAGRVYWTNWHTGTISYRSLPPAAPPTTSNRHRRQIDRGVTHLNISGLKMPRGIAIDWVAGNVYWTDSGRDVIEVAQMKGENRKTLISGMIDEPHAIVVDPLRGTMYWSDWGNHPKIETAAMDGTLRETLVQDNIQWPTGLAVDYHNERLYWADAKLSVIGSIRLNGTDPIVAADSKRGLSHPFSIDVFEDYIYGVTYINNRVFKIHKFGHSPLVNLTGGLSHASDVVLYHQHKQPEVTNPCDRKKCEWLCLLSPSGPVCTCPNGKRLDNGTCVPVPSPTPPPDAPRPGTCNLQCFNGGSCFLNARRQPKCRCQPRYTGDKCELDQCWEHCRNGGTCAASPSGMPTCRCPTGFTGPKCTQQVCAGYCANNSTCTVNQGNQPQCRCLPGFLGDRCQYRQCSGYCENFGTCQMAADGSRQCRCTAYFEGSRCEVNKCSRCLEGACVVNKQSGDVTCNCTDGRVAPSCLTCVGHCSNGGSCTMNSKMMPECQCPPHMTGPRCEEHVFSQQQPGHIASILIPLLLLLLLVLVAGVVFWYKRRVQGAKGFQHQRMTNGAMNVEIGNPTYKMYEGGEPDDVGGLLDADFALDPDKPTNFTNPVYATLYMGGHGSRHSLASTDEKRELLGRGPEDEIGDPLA
UniProt P07339: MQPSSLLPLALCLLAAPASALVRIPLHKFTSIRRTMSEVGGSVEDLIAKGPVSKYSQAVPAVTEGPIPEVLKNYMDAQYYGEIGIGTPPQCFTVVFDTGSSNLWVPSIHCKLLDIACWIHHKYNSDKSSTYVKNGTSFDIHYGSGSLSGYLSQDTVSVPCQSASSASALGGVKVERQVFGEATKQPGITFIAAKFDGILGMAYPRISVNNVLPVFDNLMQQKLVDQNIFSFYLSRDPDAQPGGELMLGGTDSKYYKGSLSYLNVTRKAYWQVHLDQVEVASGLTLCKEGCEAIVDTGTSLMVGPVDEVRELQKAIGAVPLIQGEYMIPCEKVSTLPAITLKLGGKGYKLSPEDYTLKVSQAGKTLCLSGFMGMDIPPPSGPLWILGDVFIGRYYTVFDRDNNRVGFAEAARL
GST-cath-D/14K: residues 65-162 of P07339
GST-cath-D/34K: residues 169-412 of P07339
UniProt P0A7C2: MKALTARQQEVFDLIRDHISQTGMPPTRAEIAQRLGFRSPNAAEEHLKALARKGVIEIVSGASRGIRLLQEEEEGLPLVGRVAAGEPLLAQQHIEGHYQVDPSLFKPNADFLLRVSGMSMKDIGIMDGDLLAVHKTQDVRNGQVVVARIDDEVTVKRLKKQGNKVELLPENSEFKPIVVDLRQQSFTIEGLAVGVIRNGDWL

Key:
[1] = target: Myc-LRP1β (Myc-tagged LRP1 β chain) (human) (UniProt Q07954); test: co-immunoprecipitation from co-transfected COS cells, longer gel exposure
[2] = target: B42 activation domain fusion of LRP1β (307-479) (yeast two-hybrid clone, pYESTrp2-LRP1β (307-479)) (human) (UniProt Q07954); test: yeast two-hybrid, LexA bait against B42 prey
[3] = target: Myc-LRP1β (Myc-tagged LRP1 β chain) (human) (UniProt Q07954); test: co-immunoprecipitation from co-transfected COS cells
LRP1-IV-HA mini-receptor [4] = target: LRP1-IV-HA mini-receptor (UniProt Q07954); test: as above
GST-cath-D/52K (human) = GST-cath-D/52K (human) (UniProt P07339); test: GST pull-down, 35S-labelled LRP1β (1-476) on GST-cath-D beads
GST-cath-D/34K (human) = GST-cath-D/34K (human) (UniProt P07339); test: as above
GST-cath-D/14K (human) = GST-cath-D/14K (human) (UniProt P07339); test: as above
[5] = target: GST-LRP1β fragment F4 (349-394) (human) (UniProt Q07954); test: GST pull-down, 35S-labelled pro-cath-D on GST-LRP1β fragment beads
[6] = target: Myc-LRP1β (Myc-tagged LRP1 β chain) (human) (UniProt Q07954); test: co-immunoprecipitation, as summed up in the discussion
[7] = target: GST-LRP1β (307-479) (human) (UniProt Q07954); test: GST pull-down, 35S-labelled pro-cath-D on GST-fusion beads, autoradiography
LRP1-IV-HA mini-receptor [8] = target: LRP1-IV-HA mini-receptor (UniProt Q07954); test: co-immunoprecipitation from co-transfected COS cells, anti-HA IP with anti-cath-D blot and anti-cath-D IP with anti-HA blot
[9] = target: Myc-LRP1β (Myc-tagged LRP1 β chain) (human) (UniProt Q07954); test: co-immunoprecipitation from co-transfected COS cells (anti-LRP1β IP, anti-cath-D blot; reciprocal IP confirmed)
LRP1-IV-HA mini-receptor [10] = target: LRP1-IV-HA mini-receptor (UniProt Q07954); test: co-immunoprecipitation from co-transfected COS cells, anti-LRP1β IP, anti-cath-D blot

Substance: 34 kDa cath-D polypeptide (mature heavy chain, in COS cells) (from UniProt P07339 169-412) (enzyme)
binding [1]: binds

Substance: LexA DNA-binding domain fusion of 34 kDa mature heavy chain of human cath-D (from UniProt P0A7C2 1-202; P07339 169-412)
binding [2]: binds

Substance: cath-D (wild-type human cath-D expressed from a transfected vector) (from UniProt P07339 21-412) (enzyme)
binding [3]: binds | binding (LRP1-IV-HA mini-receptor [4]): binds

Substance: pro-cath-D (52 kDa precursor of human cathepsin D) (from UniProt P07339 21-412) (enzyme)
binding [5]: binds | binding [6]: binds | binding [7]: binds | binding (LRP1-IV-HA mini-receptor [8]): binds | binding [9]: binds | binding (LRP1-IV-HA mini-receptor [10]): binds

Other lines, results leading:

binding [1]: binds
Substance: 48 kDa cath-D polypeptide (intermediate form, in COS cells) (from UniProt P07339 65-412) (enzyme)

binding [2]: binds
Substance: LexA DNA-binding domain fusion of 14 kDa mature light chain of human cath-D (from UniProt P0A7C2 1-202; P07339 65-162)

binding [2]: binds
Substance: LexA DNA-binding domain fusion of 48 kDa intermediate of human cath-D (from UniProt P0A7C2 1-202; P07339 65-412)

binding (GST-cath-D/52K (human)): binds | binding (GST-cath-D/34K (human)): binds | binding (GST-cath-D/14K (human)): binds
Substance: full-length extracellular domain of LRP1β (1-476) (from UniProt Q07954 3944-4419) (receptor)
